According to the supplement of paper PMC5662767:
The other results are listed elsewhere or left out. Baselines shift from plate to plate; read single values as rough.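 Smoothened with circularly permuted GFP in its cytoplasmic tail is carried by a clonal Drosophila S2 line; fluorescence appears when Hh-driven phosphorylation opens an inhibitory loop. Per-cell signal, read by flow cytometry, was scaled to Hh-stimulated untreated cells. Hits were consistent fluorescence-shifting groups of inhibitors sharing pathway targets, not single compounds.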

test system: Drosophila S2 cl14 SmoIP sensor cells; assay: normalized SmoIP GFP fluorescence (untreated unstimulated = 0%, untreated Hh-stimulated = 100%); higher = more Smo activation sensor fluorescence; conditions: stimulation: Hh conditioned medium (+Hh); compound concentration: 15 uM; 24 h

SMILES | normalized SmoIP GFP fluorescence
CC(=O)Oc1cc(C(F)(F)F)ccc1C(=O)O [triflusal] | 117%
CCN(CC)CC(=O)Nc1c(C)cccc1C [Lidocaine] | 118%
COc1ccc(-c2oc3c(CC=C(C)C)c(O[C@@H]4O[C@H](CO)[C@@H](O)[C@H](O)[C@H]4O)cc(O)c3c(=O)c2O[C@@H]2O[C@@H](C)[C@H](O)[C@@H](O)[C@H]2O)cc1 [Icariin] | 115%
CC#CCn1c(N2CCC[C@@H](N)C2)nc2c1c(=O)n(Cc1nc(C)c3ccccc3n1)c(=O)n2C [linagliptin-bi-1356] | 125%
C#Cc1cccc(Nc2ncnc3cc4c(cc23)OCCOCCOCCO4)c1 [icotinib] | 113%
Cc1ccc(NC(=O)c2ccc(CN3CCN(C)CC3)cc2)cc1Nc1nc(-c2cccnc2)cs1 [Masitinib-(AB1010)] | 96.5%
CN1CCC[C@@H]1CCO[C@](C)(c1ccccc1)c1ccc(Cl)cc1 [Clemastine-Fumarate] | 195%
C[C@]1(O)C[C@@H](c2nc(-c3ccc4ccc(-c5ccccc5)nc4c3)c3c(N)nccn32)C1 | 182%
CC(=O)Nc1ccc(NC(=S)NC(=O)c2ccc(C(C)(C)C)cc2)cc1 [tenovin-1] | 154%
CC1=C(C(=O)OC(C)C)C(c2cccc([N+](=O)[O-])c2)C(C(=O)OC2CN(C(c3ccccc3)c3ccccc3)C2)=C(N)N1 (configuration not stated) [azelnidipine] | 129%
CC/C(=C(\c1ccccc1)c1ccc(OCCN(C)C)cc1)c1ccccc1 [Tamoxifen-Citrate(Nolvadex)] | 148%
N#CC1(c2ccc(NC(=O)c3cccnc3NCc3ccncc3)cc2)CCCC1 [Apatinib-YN968D1] | 58.8%

An excerpt from above in order of molar mass, rising.
SMILES | normalized SmoIP GFP fluorescence
CC(=O)Oc1cc(C(F)(F)F)ccc1C(=O)O [triflusal] | 117%
CN1CCC[C@@H]1CCO[C@](C)(c1ccccc1)c1ccc(Cl)cc1 [Clemastine-Fumarate] | 195%
COc1ccc(-c2oc3c(CC=C(C)C)c(O[C@@H]4O[C@H](CO)[C@@H](O)[C@H](O)[C@H]4O)cc(O)c3c(=O)c2O[C@@H]2O[C@@H](C)[C@H](O)[C@@H](O)[C@H]2O)cc1 [Icariin] | 115%
